In patent US11426441B2, “Composition comprising protein phosphatase 1 inhibitory peptide for treating vascular diseases” (BethphaGen Inc., priority 2016, dated 2022):
At least one structure is not confirmed: it was looked up by name or label, or the drawing left a doubt.

Test system: eNOS and Akt
Assay: eNOS and Akt phosphorylation in PAECs (western blotting)
Assay type: cell-based
Conditions: LY294002 50 μM
Method: FIGS. 16a, 16b and 16c. (16a-16b) PAECs were treated with 3 μM ψPLB-SE for 1 hour, and protein expression was quantitatively analyzed through western blotting using antibodies against Phospho-eNOS (ser1177), total eNOS, phospho-Akt (Ser473, Thr308), total Akt, and GAPDH. (16c) The pulmonary tissue lysate was subjected to immunoprecipitation using PP1 antibody to investigate the interactions of PP1 with eNOS and Akt depending on the presence or absence of the treatment with ψPLB-SE using respective antibodies therefor.
FIGS. 17a, 17b and 17c. (17a) PAECs were treated with 50 μM LY294002, a PI3K inhibitor, for 24 hours, and then treated with 3 μM ψPLB-SE for 1 hour. Protein expression was quantitatively analyzed through western blotting using antibodies against Phospho-eNOS (ser1177), total eNOS, phospho-Akt (Ser473, Thr308), total Akt, and GAPDH. (17b) PAECs were treated with 10 μM inhibitor IV, an Akt inhibitor, for 2 hours, and then treated with 3 μM ψPLB-SE for 1 hour. Protein expression was quantitatively analyzed through western blotting using antibodies against total eNOS and GAPDH. (17c) PAECs were treated with 100 nM OA, a PP1 inhibitor, for 24 hours, and then treated with 3 μM ψPLB-SE for 1 hour. Protein expression was quantitatively analyzed through western blotting using antibodies against Phospho-eNOS (ser1177), total eNOS, phospho-Akt (Ser473, Thr308), total Akt, and GAPDH. […]

SMILES: O=c1cc(N2CCOCC2)oc2c(-c3ccccc3)cccc12 [LY294002, reference compound]
- phosphorylation of eNOS and Akt: reduced
